PubChem BioAssay AID1259405 | NCATS | 2018

Screen: 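Mouse-designed siRNAs used to find CHO productivity engineering targets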 (primary screen)
Cells: Chinese hamster CHO-K1 ovary cells with stable secreted eGFP expression
Reagents: single siRNA against mouse genes, 0.8 pmol siRNA per well (2 µl of 400 nM stock)
Time to read-out: 3 days
Measurement: 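Per-well intracellular GFP measured by laser scanning cytometry, plus viability from ATP luminescence, each relative to plate median of non-targeting control wells, in %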
Scale: GFP, % of control: higher = more GFP per well, higher productivity; viability (ATP), % of control: higher = more viable cells (more ATP)
Hit rule: 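Called active when intracellular GFP, relative to negative control, is at or above 120%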
In all, the deposit lists about 50,000 reagents; shown is an unselected part. About 4,000 of all reagents (8%) were called active. 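Mouse siRNA library applied to hamster cells; one well for each siRNA.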 Unmarked entries are inactive. Reagents against one gene are numbered here.

Hipk3 (homeodomain interacting protein kinase 3)
- GFP, % of control: 87.4
- viability (ATP), % of control: 67.1

Styx (serine/threonine/tyrosine interaction protein) #1
- GFP, % of control: 82.3
- viability (ATP), % of control: 78.5

Styx (serine/threonine/tyrosine interaction protein) #2
- GFP, % of control: 110
- viability (ATP), % of control: 78.6

Smim11 (small integral membrane protein 11) #1
- GFP, % of control: 143 (active)
- viability (ATP), % of control: 120

Smim11 (small integral membrane protein 11) #2
- GFP, % of control: 98.8
- viability (ATP), % of control: 70.8

Smim11 (small integral membrane protein 11) #3
- GFP, % of control: 30.4
- viability (ATP), % of control: 61.7

9630013D21Rik (RIKEN cDNA 9630013D21 gene) #1
- GFP, % of control: 71.8
- viability (ATP), % of control: 66.7

9630013D21Rik (RIKEN cDNA 9630013D21 gene) #2
- GFP, % of control: 218 (active)
- viability (ATP), % of control: 55.9

9630013D21Rik (RIKEN cDNA 9630013D21 gene) #3
- GFP, % of control: 76.1
- viability (ATP), % of control: 86

Etf1 (eukaryotic translation termination factor 1) #1
- GFP, % of control: 67.4
- viability (ATP), % of control: 74.3

Etf1 (eukaryotic translation termination factor 1) #2
- GFP, % of control: 59.8
- viability (ATP), % of control: 50.3

Etf1 (eukaryotic translation termination factor 1) #3
- GFP, % of control: 85.3
- viability (ATP), % of control: 29.5

Riiad1 #1
- GFP, % of control: 92.6
- viability (ATP), % of control: 80.8

Riiad1 #2
- GFP, % of control: 65.9
- viability (ATP), % of control: 44

Riiad1 #3
- GFP, % of control: 67.4
- viability (ATP), % of control: 75.4

Magi1 #1
- GFP, % of control: 72.8
- viability (ATP), % of control: 46

Magi1 #2
- GFP, % of control: 71.9
- viability (ATP), % of control: 78.2

Magi1 #3
- GFP, % of control: 94.7
- viability (ATP), % of control: 71

Limited to “GFP, % of control”, for 5 of the entries above:
9630013D21Rik (RIKEN cDNA 9630013D21 gene) #3	76.1
Etf1 (eukaryotic translation termination factor 1) #1	67.4
Etf1 (eukaryotic translation termination factor 1) #2	59.8
Etf1 (eukaryotic translation termination factor 1) #3	85.3
Riiad1 #1	92.6

The results go on.
Ppp4r1 (protein phosphatase 4, regulatory subunit 1) #1
- GFP, % of control: 90.1
- viability (ATP), % of control: 120

Ppp4r1 (protein phosphatase 4, regulatory subunit 1) #2
- GFP, % of control: 54
- viability (ATP), % of control: 43.9

Ppp4r1 (protein phosphatase 4, regulatory subunit 1) #3
- GFP, % of control: 57.7
- viability (ATP), % of control: 84.1

Elane (elastase, neutrophil expressed) #1
- GFP, % of control: 122 (active)
- viability (ATP), % of control: 96.6

Elane (elastase, neutrophil expressed) #2
- GFP, % of control: 66.5
- viability (ATP), % of control: 74.7

Elane (elastase, neutrophil expressed) #3
- GFP, % of control: 61.1
- viability (ATP), % of control: 45.7

Phpt1 (phosphohistidine phosphatase 1) #1
- GFP, % of control: 93.4
- viability (ATP), % of control: 66

Phpt1 (phosphohistidine phosphatase 1) #2
- GFP, % of control: 51.2
- viability (ATP), % of control: 53.1

Supt16 (SPT16, facilitates chromatin remodeling subunit) #1
- GFP, % of control: 45.4
- viability (ATP), % of control: 36.5

Supt16 (SPT16, facilitates chromatin remodeling subunit) #2
- GFP, % of control: 79.8
- viability (ATP), % of control: 69.4

Pmepa1 (prostate transmembrane protein, androgen induced 1) #1
- GFP, % of control: 125 (active)
- viability (ATP), % of control: 47.1

Pmepa1 (prostate transmembrane protein, androgen induced 1) #2
- GFP, % of control: 96.4
- viability (ATP), % of control: 115

Pmepa1 (prostate transmembrane protein, androgen induced 1) #3
- GFP, % of control: 163 (active)
- viability (ATP), % of control: 144

Cklf (chemokine-like factor) #1
- GFP, % of control: 68.4
- viability (ATP), % of control: 78.2

Cklf (chemokine-like factor) #2
- GFP, % of control: 107
- viability (ATP), % of control: 90.4

Cklf (chemokine-like factor) #3
- GFP, % of control: 84.8
- viability (ATP), % of control: 97.9

Gip (gastric inhibitory polypeptide) #1
- GFP, % of control: 36.9
- viability (ATP), % of control: 28.8

Gip (gastric inhibitory polypeptide) #2
- GFP, % of control: 23.9
- viability (ATP), % of control: 45.4

Gip (gastric inhibitory polypeptide) #3
- GFP, % of control: 58.4
- viability (ATP), % of control: 42.8

Fbxl7 (F-box and leucine-rich repeat protein 7) #1
- GFP, % of control: 116
- viability (ATP), % of control: 108

Fbxl7 (F-box and leucine-rich repeat protein 7) #2
- GFP, % of control: 119
- viability (ATP), % of control: 80.2

Fbxl7 (F-box and leucine-rich repeat protein 7) #3
- GFP, % of control: 118
- viability (ATP), % of control: 78.1
